Taken from: PubChem BioAssay AID1159578 (Peter MacCallum Cancer Centre, 2015)

- Test: 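siRNA pools altering how lymphatic endothelial cells close a scratch wound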 (primary screen)
- Cells: human lymphatic endothelial cells
- Reagents: siRNA pool against human genes, 40 nM
- Time to read-out: 48 h after transfection
- Read-out: 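High-content imaging of dye-stained cells in a scratch assay measures filled wound area and nuclei per well; duplicate means given as ratio to mock and robust z-score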
- Scale: migration robust z-score: higher = faster migration into the scratch; nuclei per well: higher = more cells in the well
- Active means: 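Migration changed when robust z exceeds 2 or falls below -2 and mean nuclei number is at least 3300; otherwise not called changed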
- Meaning of the calls: active = migration changed; inactive = no migration change, or too few cells
This is one part, drawn at random, of about 18,000 reagents. In the full data, about 1,030 (5.7%) were called active. 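Inactive calls also include pools with fewer than 3300 nuclei, whose migration was not assessed.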 The raw values are shown without normalisation. A number with no mark means an inactive call. Not all columns of the deposit are shown. No sequences are given here.

target gene	migration robust z-score	nuclei per well, duplicate mean
USHBP1 (USH1 protein network component harmonin binding protein 1)	-0.8	5404
EFCAB5 (EF-hand calcium binding domain 5)	-0.72	6895
LNPK (lunapark, ER junction formation factor)	0.23	5666
C7orf25 (chromosome 7 open reading frame 25)	-0.65	5794
SERINC3 (serine incorporator 3)	1.19	5990
TMUB1 (transmembrane and ubiquitin like domain containing 1)	0.54	5704
BRME1 (break repair meiotic recombinase recruitment factor 1)	1.48	6694
LLGL1 (LLGL scribble cell polarity complex component 1)	-0.32	5636
RXYLT1 (ribitol xylosyltransferase 1)	-1.68	3822
EPHA2 (EPH receptor A2)	-0.21	4524
PRKRA	0.96	5747
IMPG2 (interphotoreceptor matrix proteoglycan 2)	-0.71	4905
FSTL1 (follistatin like 1)	1.44	5710
ZNF696 (zinc finger protein 696)	-1.17	6590
ABL1 (ABL proto-oncogene 1, non-receptor tyrosine kinase)	-1.42	4565
ABI1 (abl interactor 1)	-1.11	5514
TNP2 (transition protein 2)	1.01	6144
CNOT10 (CCR4-NOT transcription complex subunit 10)	2.17 (active)	6592
STARD6 (StAR related lipid transfer domain containing 6)	0.55	5690
STAG3L3 (STAG3 cohesin complex component like 3 (pseudogene))	1.23	6751
HNRNPD (heterogeneous nuclear ribonucleoprotein D)	0.13	5082
TCEAL4 (transcription elongation factor A like 4)	0.24	6108
CELA2A (chymotrypsin like elastase 2A)	0.94	5914
HEBP1 (heme binding protein 1)	2.4 (active)	6445
FAM133B (family with sequence similarity 133 member B)	0.68	5588
RCBTB2 (RCC1 and BTB domain containing protein 2)	-0.14	6084
GNPDA2 (glucosamine-6-phosphate deaminase 2)	0.31	5844
CDY1 (chromodomain Y-linked 1)	-0.8	4746
OR1F1 (olfactory receptor family 1 subfamily F member 1)	-1.62	4792
CCDC136 (coiled-coil domain containing 136)	-0.49	5409
ARPC2 (actin related protein 2/3 complex subunit 2)	-1.16	5082
THBS3 (thrombospondin 3)	-1.34	2914
ACOT9 (acyl-CoA thioesterase 9)	2.25 (active)	5866
CHAC2 (ChaC glutathione specific gamma-glutamylcyclotransferase 2)	1.08	6240
HIVEP1 (HIVEP zinc finger 1)	-0.42	5555
SLC4A5	-1.19	6232
GMEB2 (glucocorticoid modulatory element binding protein 2)	0.39	5204
ALAS1 (5'-aminolevulinate synthase 1)	0.98	6003
SPIN2A (spindlin family member 2A)	-0.77	5341
TNRC6C (trinucleotide repeat containing adaptor 6C)	-0.92	4991
SRP14 (signal recognition particle 14)	0.21	4996
P2RX1 (purinergic receptor P2X 1)	-1.5	5396
KRT78 (keratin 78)	-0.22	4552
ZBTB2 (zinc finger and BTB domain containing 2)	1.31	5920
SNHG29 (small nucleolar RNA host gene 29)	2.76 (active)	6957
ADRM1 (ADRM1 26S proteasome ubiquitin receptor)	-0.3	6106
ATPAF2 (ATP synthase mitochondrial F1 complex assembly factor 2)	0.29	6234
PRKAR2A	-1.53	4140
LSG1 (large 60S subunit nuclear export GTPase 1)	-0.2	6141
FGB (fibrinogen beta chain)	-0.31	4178
ACSF2 (acyl-CoA synthetase family member 2)	0.47	5684
PER2 (period circadian regulator 2)	1.19	5830
POU1F1 (POU class 1 homeobox 1)	0.52	5485
MAN2C1 (mannosidase alpha class 2C member 1)	0.73	5402
CACUL1 (CDK2 associated cullin domain 1)	0.83	5472
ADGRE1 (adhesion G protein-coupled receptor E1)	0.03	4365
STAMBP (STAM binding protein)	-0.31	5991
POLR1H (RNA polymerase I subunit H)	1.46	5235
HPD (4-hydroxyphenylpyruvate dioxygenase)	-1.22	5969
HADHA	-0.62	6835
FAM151B (family with sequence similarity 151 member B)	0.16	5564
TMSB4Y (thymosin beta 4 Y-linked)	0.66	5799
FBXW10B (F-box and WD repeat domain containing 10B)	1.09	4454
MLST8 (MTOR associated protein MLST8)	0.03	5634
CAPRIN1 (cell cycle associated protein 1)	-0.16	3316
SCARB2 (scavenger receptor class B member 2)	0.29	5666
OR6C1 (olfactory receptor family 6 subfamily C member 1)	-0.32	6076
SDF4 (stromal cell derived factor 4)	1.17	6013
RAB5IF (RAB5 interacting factor)	-0.01	5848
HIKESHI (heat shock protein nuclear import factor hikeshi)	0.21	6144
MAB21L3 (mab-21 like 3)	0.16	4708
ARHGAP36 (Rho GTPase activating protein 36)	-1.02	5634
AGAP1 (ArfGAP with GTPase domain, ankyrin repeat and PH domain 1)	1.19	7141

Hits, of those listed so far:
target gene	migration robust z-score	nuclei per well, duplicate mean
CNOT10 (CCR4-NOT transcription complex subunit 10)	2.17 (active)	6592
HEBP1 (heme binding protein 1)	2.4 (active)	6445
ACOT9 (acyl-CoA thioesterase 9)	2.25 (active)	5866
SNHG29 (small nucleolar RNA host gene 29)	2.76 (active)	6957
